Results as given in patent US20260176365A1 (SYNTHEKINE, published 2026).
Results are given in words; binding and its absence hold for the method and conditions named. Some binding calls cover weakened binding; strength is not graded here. Tags and fused reporters may be left off the sequences shown. One block for each binder: values may come before it.

The chains behind the UniProt entries cited, without tags or fusion partners. Where a name states a change or a piece, a line headed by the entry shows the natural chain unless it says otherwise.
UniProt P40189: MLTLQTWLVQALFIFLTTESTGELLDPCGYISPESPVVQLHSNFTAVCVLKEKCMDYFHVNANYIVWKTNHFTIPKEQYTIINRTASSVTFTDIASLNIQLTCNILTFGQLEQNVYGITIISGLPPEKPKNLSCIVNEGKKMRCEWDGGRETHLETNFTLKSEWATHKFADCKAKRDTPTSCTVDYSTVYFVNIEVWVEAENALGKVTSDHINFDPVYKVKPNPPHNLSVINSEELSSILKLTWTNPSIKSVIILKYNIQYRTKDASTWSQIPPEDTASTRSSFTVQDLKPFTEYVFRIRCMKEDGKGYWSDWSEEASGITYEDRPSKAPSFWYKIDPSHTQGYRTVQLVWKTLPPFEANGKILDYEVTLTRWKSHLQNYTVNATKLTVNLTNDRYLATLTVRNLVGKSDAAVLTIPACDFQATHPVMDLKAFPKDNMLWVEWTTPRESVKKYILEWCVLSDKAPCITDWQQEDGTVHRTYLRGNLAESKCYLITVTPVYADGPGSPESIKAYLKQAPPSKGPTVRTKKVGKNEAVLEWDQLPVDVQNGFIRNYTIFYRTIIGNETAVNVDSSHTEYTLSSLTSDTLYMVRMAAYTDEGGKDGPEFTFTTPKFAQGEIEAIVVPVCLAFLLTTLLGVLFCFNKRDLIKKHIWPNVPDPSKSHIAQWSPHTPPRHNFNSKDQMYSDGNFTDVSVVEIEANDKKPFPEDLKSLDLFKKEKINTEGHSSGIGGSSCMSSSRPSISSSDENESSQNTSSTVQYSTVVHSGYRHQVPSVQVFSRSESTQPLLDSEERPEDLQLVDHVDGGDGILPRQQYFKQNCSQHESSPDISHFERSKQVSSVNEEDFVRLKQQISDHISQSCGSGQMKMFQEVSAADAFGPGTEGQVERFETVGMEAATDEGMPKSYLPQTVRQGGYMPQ

Target: hGP130-his (Sino Biological, Catalog# 10974) (human) (UniProt P40189)
Assay: SPR, summary sentence on Tables 6 and 7

B1: DR591 Mono-Fc VHH (Fc fusion)
chain: QVQLQESGGGSVQAGGSLRLSCTASGAIASGYIDSRWCMAWFRQAPGKEREGVAAIWPGGGLTVYADSVKGRFTISRDHAKNTLYLQMNNLKPEDTAMYYCAAGSPRMCPSLEFGFDYWGQGTQVTVSS
notes: Mono-Fc format is not described further; also called anti-hGP130 Mono-Fc VHH; not shown: Fc part of the Mono-Fc format
binding: binds

B3: DR593 Mono-Fc VHH (Fc fusion)
chain: QVQLQESGGGSVQAGGSLRLSCAASGYPYSNGYMGWFRQAPGKEREGVATIYTGDGRTYYADSVKGRFTISRDNAKNTVDLQMSSLKPEDTAMYYCAARAAPLYSSGSPLTRARYNVWGQGTQVTVSS
notes: as for B1
binding: binds

B4: DR592 Mono-Fc VHH (Fc fusion)
chain: QVQLQESGGGSVQAGGSLRLSCTAPGFTSNSCGMDWYRQAPGKEREFVSSISTDGTTGYADSVKGRFTISKDKAKDTVYLQMNSLKPEDTGMYSCKTKDGTIATMELCDFGYWGQGTQVTVSS
notes: as for B1
binding: binds

Further lines, results first:

binding: binds
B2: DR594 Mono-Fc VHH (Fc fusion)
chain: QVQLQESGGGSVQAGGSLRLSCVASASTYCTYDMHWYRQAPGKGREFVSAIDSDGTTRYADSVKGRFTISQGTAKNTVYLQMNSLQPEDTAMYYCKTVCVVGSRWSDYWGQGTQVTVSS
notes: as for B1

binding: binds
B5: DR596 Mono-Fc VHH (Fc fusion)
chain: QVQLQESGGGLVQPGGSLRLSCTASGLTFDDSVMGWFRQAPGKGREAVSCISSSGANAFYADSVKGRFTISRDNAKNTLYLQMNSLKPEDTATYYCKRGHACAGYYPIPYDDYWGQGTQVTVSS
notes: as for B1

binding: binds
B6: DR595 Mono-Fc VHH (Fc fusion)
chain: QVQLQESGGGSVQAGGSLTLSCAASEYAYSTCNMGWYRQAPGKERELVSAFISDGSTYYADSVKGRFTITRDNAKNTVYLQMNSLKPEDTAIYYCSANCYRRLRNYWGQGTQVTVSS
notes: as for B1
